Some entries share one result that the patent states for a list of compounds.
System: endogenous DNA-PKcs, NuMA and PARP in HeLa cell lysates
Experiment: Cleavage of endogenous substrates in HeLa lysates after adding purified granzyme B, with caspase inhibitors
Type: biochemical
Settings: inhibitor added 15 minutes prior to granzyme B; 5 separate experiments
Description: Control HeLa lysates were prepared using methods commonly applied in the art, as described in Casciola-Rosen et al., 1994. […] The mixtures were incubated for 15 mn on ice to facilitate binding of the inhibitors to proteases prior to performing cleavage reactions at 37° C. for 60 min. After electrophoresing the samples on 10% SDS-polyacrylamide gels containing 0.087% bisacrylamide, the intact proteins and their cleaved fragments were visualized by immunoblotting.

NC(=O)CI [iodoacetamide]
inhibition of cleavage of NuMA and DNA-PKcs: 20-40%

From patent US6855515B1, “Autoantigenic fragments, methods and assays” (Merck & Co., Inc., priority 1998, dated 2005)
